# Source: the supplement of paper PMC8728848
# Some of the results follow.
# Key:
# Assay in all cases: glycan array binding signal (z-score within array); higher = stronger binding
# Settings in all cases: glycan notation: IUPAC condensed, linker removed
# [1] = target: Fuc(a1-2)Gal
# In short: (§1)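 Glycan array data were curated from 3228 arrays in the Consortium for Functional Glycomics database and kept only where the protein sequence was available. Glycan names were converted to IUPAC-condensed notation, and columns mapping to the same glycan were averaged. The binding signal is a within-array Z-score, averaged across arrays of the same protein sequence at different concentrations or buffers and across linkers. Negative Z-scores can be read as non-binding.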
# [2] = target: Fuc(a1-2)Gal(b1-3)GalNAc
# In short: as §1
# [3] = target: Fuc(a1-2)Gal(b1-3)GalNAc(a1-3)[Fuc(a1-2)]Gal(b1-4)Glc
# In short: as §1
# [4] = target: Fuc(a1-2)Gal(b1-3)GalNAc(a1-3)[Fuc(a1-2)]Gal(b1-4)GlcNAc
# In short: as §1
# [5] = target: Fuc(a1-2)Gal(b1-3)GalNAc(b1-3)Gal
# In short: as §1
# [6] = target: Fuc(a1-2)Gal(b1-3)GalNAc(b1-3)Gal(a1-4)Gal(b1-4)Glc
# In short: as §1
# [7] = target: Fuc(a1-2)Gal(b1-3)GalNAc(b1-4)[Neu5Ac(a2-3)]Gal(b1-4)Glc
# In short: as §1
# [8] = target: Fuc(a1-2)Gal(b1-3)GlcNAc
# In short: as §1
# [9] = target: Fuc(a1-2)Gal(b1-3)GlcNAc(b1-2)Man(a1-3)[Fuc(a1-2)Gal(b1-3)GlcNAc(b1-2)Man(a1-6)]Man(b1-4)GlcNAc(b1-4)GlcNAc
# In short: as §1
# [10] = target: Fuc(a1-2)Gal(b1-3)GlcNAc(b1-2)Man(a1-3)[Fuc(a1-2)Gal(b1-3)GlcNAc(b1-2)Man(a1-6)]Man(b1-4)GlcNAc(b1-4)[Fuc(a1-6)]GlcNAc
# In short: as §1
# [11] = target: Fuc(a1-2)Gal(b1-3)GlcNAc(b1-3)Gal(b1-4)Glc
# In short: as §1
# [12] = target: Fuc(a1-2)Gal(b1-3)GlcNAc(b1-3)GalNAc
# In short: as §1
# [13] = target: Fuc(a1-2)Gal(b1-3)GlcNAc(b1-3)[Fuc(a1-2)Gal(b1-3)GlcNAc(b1-6)]GalNAc
# In short: as §1
# [14] = target: Fuc(a1-2)Gal(b1-3)GlcNAc(b1-3)[Gal(b1-4)GlcNAc(b1-6)]Gal(b1-4)Glc
# In short: as §1
# [15] = target: Fuc(a1-2)Gal(b1-3)GlcNAc(b1-3)[Neu5Ac(a2-6)Gal(b1-4)GlcNAc(b1-6)]Gal(b1-4)Glc
# In short: as §1
# [16] = target: Fuc(a1-2)Gal(b1-3)GlcNAc6S
# In short: as §1
# [17] = target: Fuc(a1-2)Gal(b1-3)[Fuc(a1-4)]GlcNAc
# In short: as §1
# [18] = target: Fuc(a1-2)Gal(b1-3)[Fuc(a1-4)]GlcNAc(b1-2)Man(a1-3)[Fuc(a1-2)Gal(b1-3)[Fuc(a1-4)]GlcNAc(b1-2)Man(a1-3)]Man(b1-4)GlcNAc(b1-4)GlcNAc
# In short: as §1
# [19] = target: Fuc(a1-2)Gal(b1-3)[Fuc(a1-4)]GlcNAc(b1-2)Man(a1-3)[Fuc(a1-2)Gal(b1-3)[Fuc(a1-4)]GlcNAc(b1-2)Man(a1-6)]Man(b1-4)GlcNAc(b1-4)[Fuc(a1-6)]GlcNAc(b1-4)[Fuc(a1-6)]GlcNAc
# In short: as §1
# [20] = target: Fuc(a1-2)Gal(b1-3)[Fuc(a1-4)]GlcNAc(b1-3)[Fuc(a1-3)[Gal(b1-4)]GlcNAc(b1-6)]Gal(b1-4)Glc
# In short: as §1
# [21] = target: Fuc(a1-2)Gal(b1-3)[Fuc(a1-4)]GlcNAc(b1-3)[Gal(b1-4)GlcNAc(b1-6)]Gal(b1-4)Glc
# In short: as §1
# [22] = target: Fuc(a1-2)Gal(b1-4)Glc
# In short: as §1
# [23] = target: Fuc(a1-2)Gal(b1-4)Glc6S
# In short: as §1
# [24] = target: Fuc(a1-2)Gal(b1-4)GlcNAc
# In short: as §1
# [25] = target: Fuc(a1-2)Gal(b1-4)GlcNAc(b1-2)Man
# In short: as §1
# [26] = target: Fuc(a1-2)Gal(b1-4)GlcNAc(b1-2)Man(a1-3)[Fuc(a1-2)Gal(b1-4)GlcNAc(b1-2)Man(a1-6)]Man(b1-4)GlcNAc(b1-4)GlcNAc
# In short: as §1
# [27] = target: Fuc(a1-2)Gal(b1-4)GlcNAc(b1-2)Man(a1-3)[Fuc(a1-2)Gal(b1-4)GlcNAc(b1-2)Man(a1-6)]Man(b1-4)GlcNAc(b1-4)[Fuc(a1-6)]GlcNAc
# In short: as §1
# [28] = target: Fuc(a1-2)Gal(b1-4)GlcNAc(b1-2)[Fuc(a1-2)Gal(b1-4)GlcNAc(b1-4)]Man(a1-3)[Fuc(a1-2)Gal(b1-4)GlcNAc(b1-2)Man(a1-6)]Man(b1-4)GlcNAc(b1-4)GlcNAc
# In short: as §1
# [29] = target: Fuc(a1-2)Gal(b1-4)GlcNAc(b1-3)Gal(b1-4)GlcNAc
# In short: as §1
# [30] = target: Fuc(a1-2)Gal(b1-4)GlcNAc(b1-3)Gal(b1-4)GlcNAc(b1-2)Man(a1-3)[Fuc(a1-2)Gal(b1-4)GlcNAc(b1-3)Gal(b1-4)GlcNAc(b1-2)Man(a1-6)]Man(b1-4)GlcNAc(b1-4)GlcNAc
# In short: as §1
# [31] = target: Fuc(a1-2)Gal(b1-4)GlcNAc(b1-3)Gal(b1-4)GlcNAc(b1-3)Gal(b1-4)GlcNAc
# In short: as §1
# [32] = target: Fuc(a1-2)Gal(b1-4)GlcNAc(b1-3)GalNAc
# In short: as §1
# [33] = target: Fuc(a1-2)Gal(b1-4)GlcNAc(b1-3)[Fuc(a1-2)Gal(b1-4)GlcNAc(b1-6)]GalNAc
# In short: as §1
# [34] = target: Fuc(a1-2)Gal(b1-4)GlcNAc(b1-3)[Fuc(a1-3)[Gal(b1-4)]GlcNAc(b1-6)]Gal(b1-4)Glc
# In short: as §1
# [35] = target: Fuc(a1-2)Gal(b1-4)GlcNAc(b1-6)GalNAc
# In short: as §1
# [36] = target: Fuc(a1-2)Gal(b1-4)GlcNAc6S
# In short: as §1
# [37] = target: Fuc(a1-2)Gal(b1-4)[Fuc(a1-3)]GlcNAc
# In short: as §1
# [38] = target: Fuc(a1-2)Gal(b1-4)[Fuc(a1-3)]GlcNAc(b1-2)Man(a1-3)[Fuc(a1-2)Gal(b1-4)[Fuc(a1-3)]GlcNAc(b1-2)Man(a1-6)]Man(b1-4)GlcNAc(b1-4)[Fuc(a1-6)]GlcNAc
# In short: as §1
# [39] = target: Fuc(a1-2)Gal(b1-4)[Fuc(a1-3)]GlcNAc(b1-2)[Fuc(a1-2)Gal(b1-4)[Fuc(a1-3)]GlcNAc(b1-4)]Man(a1-3)[Fuc(a1-2)Gal(b1-4)[Fuc(a1-3)]GlcNAc(b1-2)Man(a1-6)]Man(b1-4)GlcNAc(b1-4)GlcNAc
# In short: as §1
# [40] = target: Fuc(a1-2)Gal(b1-4)[Fuc(a1-3)]GlcNAc(b1-3)Gal(b1-4)[Fuc(a1-3)]GlcNAc
# In short: as §1
# [41] = target: Fuc(a1-2)Gal(b1-4)[Fuc(a1-3)]GlcNAc(b1-3)Gal(b1-4)[Fuc(a1-3)]GlcNAc(b1-3)Gal(b1-4)[Fuc(a1-3)]GlcNAc
# In short: as §1
# [42] = target: Fuc(a1-2)Gal(b1-4)[Fuc(a1-3)]GlcNAc(b1-3)GalNAc
# In short: as §1
# [43] = target: Fuc(a1-2)Gal(b1-4)[Fuc(a1-3)]GlcNAc(b1-3)[Neu5Ac(a2-6)Gal(b1-4)GlcNAc(b1-6)]Gal(b1-4)Glc
# In short: as §1
# [44] = target: Fuc(a1-2)Gal3S(b1-4)GlcNAc
# In short: as §1
# [45] = target: Fuc(a1-2)Gal6S(b1-3)GlcNAc
# In short: as §1
# [46] = target: Fuc(a1-2)Gal6S(b1-3)GlcNAc6S
# In short: as §1
# [47] = target: Fuc(a1-2)Gal6S(b1-4)Glc
# In short: as §1
# [48] = target: Fuc(a1-2)Gal6S(b1-4)Glc6S
# In short: as §1
# [49] = target: Fuc(a1-2)[Gal(a1-3)]Gal
# In short: as §1
# [50] = target: Fuc(a1-2)[Gal(a1-3)]Gal(b1-3)GalNAc
# In short: as §1
# [51] = target: Fuc(a1-2)[Gal(a1-3)]Gal(b1-3)GalNAc(b1-3)Gal(a1-4)Gal(b1-4)Glc
# In short: as §1
# [52] = target: Fuc(a1-2)[Gal(a1-3)]Gal(b1-3)GlcNAc
# In short: as §1
# [53] = target: Fuc(a1-2)[Gal(a1-3)]Gal(b1-3)GlcNAc(b1-2)Man(a1-3)[Fuc(a1-2)[Gal(a1-3)]Gal(b1-3)GlcNAc(b1-2)Man(a1-6)]Man(b1-4)GlcNAc(b1-4)GlcNAc
# In short: as §1
# [54] = target: Fuc(a1-2)[Gal(a1-3)]Gal(b1-3)GlcNAc(b1-2)Man(a1-3)[Fuc(a1-2)[Gal(a1-3)]Gal(b1-3)GlcNAc(b1-2)Man(a1-6)]Man(b1-4)GlcNAc(b1-4)[Fuc(a1-6)]GlcNAc
# In short: as §1
# [55] = target: Fuc(a1-2)[Gal(a1-3)]Gal(b1-3)GlcNAc(b1-3)GalNAc
# In short: as §1
# [56] = target: Fuc(a1-2)[Gal(a1-3)]Gal(b1-3)GlcNAc(b1-6)GalNAc
# In short: as §1
# [57] = target: Fuc(a1-2)[Gal(a1-3)]Gal(b1-4)Glc
# In short: as §1
# [58] = target: Fuc(a1-2)[Gal(a1-3)]Gal(b1-4)GlcNAc
# In short: as §1
# [59] = target: Fuc(a1-2)[Gal(a1-3)]Gal(b1-4)GlcNAc(b1-2)Man
# In short: as §1
# [60] = target: Fuc(a1-2)[Gal(a1-3)]Gal(b1-4)GlcNAc(b1-2)Man(a1-3)[Fuc(a1-2)[Gal(a1-3)]Gal(b1-4)GlcNAc(b1-2)Man(a1-6)]Man(b1-4)GlcNAc(b1-4)GlcNAc
# In short: as §1
binder,measurement,setting,value
Clec18A (Homo sapiens) (protein) PFHTCDLRIDGDCFMVSSEADTYYRARMKCQRKGGVLAQIKRQKVQDILAFYLGRLETTNEVIDSDFETRNFWIGLTYKTAKDSFRWATGEHQAFTSFAFGQPDNHGFGNCVELQASAAFNWNDQRCKTRNRYICQ,glycan array binding signal (z-score),[1],-0.536
same,glycan array binding signal (z-score),[2],0.01
same,glycan array binding signal (z-score),[3],-0.752
same,glycan array binding signal (z-score),[4],-0.318
same,glycan array binding signal (z-score),[5],-0.652
same,glycan array binding signal (z-score),[6],-0.293
same,glycan array binding signal (z-score),[7],-0.807
same,glycan array binding signal (z-score),[8],-0.567
same,glycan array binding signal (z-score),[9],0.82
same,glycan array binding signal (z-score),[10],-0.73
same,glycan array binding signal (z-score),[11],-0.434
same,glycan array binding signal (z-score),[12],-0.095
same,glycan array binding signal (z-score),[13],0.898
same,glycan array binding signal (z-score),[14],-0.342
same,glycan array binding signal (z-score),[15],-0.062
same,glycan array binding signal (z-score),[16],-0.308
same,glycan array binding signal (z-score),[17],-0.979
same,glycan array binding signal (z-score),[18],-0.005
same,glycan array binding signal (z-score),[19],-0.249
same,glycan array binding signal (z-score),[20],2.41
same,glycan array binding signal (z-score),[21],-0.169
same,glycan array binding signal (z-score),[22],-0.638
same,glycan array binding signal (z-score),[23],-0.25
same,glycan array binding signal (z-score),[24],-0.535
same,glycan array binding signal (z-score),[25],-0.644
same,glycan array binding signal (z-score),[26],-0.132
same,glycan array binding signal (z-score),[27],-0.511
same,glycan array binding signal (z-score),[28],1.4
same,glycan array binding signal (z-score),[29],0.948
same,glycan array binding signal (z-score),[30],-0.412
same,glycan array binding signal (z-score),[31],-0.291
same,glycan array binding signal (z-score),[32],-0.366
same,glycan array binding signal (z-score),[33],-0.545
same,glycan array binding signal (z-score),[34],0.032
same,glycan array binding signal (z-score),[35],0.652
same,glycan array binding signal (z-score),[36],-0.39
same,glycan array binding signal (z-score),[37],-0.32
same,glycan array binding signal (z-score),[38],-0.722
same,glycan array binding signal (z-score),[39],-0.584
same,glycan array binding signal (z-score),[40],1.43
same,glycan array binding signal (z-score),[41],-0.469
same,glycan array binding signal (z-score),[42],-0.67
same,glycan array binding signal (z-score),[43],0.601
same,glycan array binding signal (z-score),[44],0.16
same,glycan array binding signal (z-score),[45],-0.357
same,glycan array binding signal (z-score),[46],0.484
same,glycan array binding signal (z-score),[47],-0.552
same,glycan array binding signal (z-score),[48],0.108
same,glycan array binding signal (z-score),[49],-0.524
same,glycan array binding signal (z-score),[50],0.101
same,glycan array binding signal (z-score),[51],-0.648
same,glycan array binding signal (z-score),[52],-0.796
same,glycan array binding signal (z-score),[53],-0.382
same,glycan array binding signal (z-score),[54],0.408
same,glycan array binding signal (z-score),[55],-0.397
same,glycan array binding signal (z-score),[56],1.74
same,glycan array binding signal (z-score),[57],-0.703
same,glycan array binding signal (z-score),[58],-0.589
same,glycan array binding signal (z-score),[59],-0.778
same,glycan array binding signal (z-score),[60],-0.014
